The target of assay [1] is laminin-332 (UniProt Q16787). The assay can be described thus: laminin-332 binding assay.
For assay [2], the target named is laminin-332 (UniProt Q16787). As to the kind of experiment: laminin-332 binding assay (FIG. 6 legend).

By UniProt entry, the sequences of proteins in these tests, tags left out. Where a name states a change or a piece, a line headed by the entry shows the natural chain unless it says otherwise.
UniProt Q16787: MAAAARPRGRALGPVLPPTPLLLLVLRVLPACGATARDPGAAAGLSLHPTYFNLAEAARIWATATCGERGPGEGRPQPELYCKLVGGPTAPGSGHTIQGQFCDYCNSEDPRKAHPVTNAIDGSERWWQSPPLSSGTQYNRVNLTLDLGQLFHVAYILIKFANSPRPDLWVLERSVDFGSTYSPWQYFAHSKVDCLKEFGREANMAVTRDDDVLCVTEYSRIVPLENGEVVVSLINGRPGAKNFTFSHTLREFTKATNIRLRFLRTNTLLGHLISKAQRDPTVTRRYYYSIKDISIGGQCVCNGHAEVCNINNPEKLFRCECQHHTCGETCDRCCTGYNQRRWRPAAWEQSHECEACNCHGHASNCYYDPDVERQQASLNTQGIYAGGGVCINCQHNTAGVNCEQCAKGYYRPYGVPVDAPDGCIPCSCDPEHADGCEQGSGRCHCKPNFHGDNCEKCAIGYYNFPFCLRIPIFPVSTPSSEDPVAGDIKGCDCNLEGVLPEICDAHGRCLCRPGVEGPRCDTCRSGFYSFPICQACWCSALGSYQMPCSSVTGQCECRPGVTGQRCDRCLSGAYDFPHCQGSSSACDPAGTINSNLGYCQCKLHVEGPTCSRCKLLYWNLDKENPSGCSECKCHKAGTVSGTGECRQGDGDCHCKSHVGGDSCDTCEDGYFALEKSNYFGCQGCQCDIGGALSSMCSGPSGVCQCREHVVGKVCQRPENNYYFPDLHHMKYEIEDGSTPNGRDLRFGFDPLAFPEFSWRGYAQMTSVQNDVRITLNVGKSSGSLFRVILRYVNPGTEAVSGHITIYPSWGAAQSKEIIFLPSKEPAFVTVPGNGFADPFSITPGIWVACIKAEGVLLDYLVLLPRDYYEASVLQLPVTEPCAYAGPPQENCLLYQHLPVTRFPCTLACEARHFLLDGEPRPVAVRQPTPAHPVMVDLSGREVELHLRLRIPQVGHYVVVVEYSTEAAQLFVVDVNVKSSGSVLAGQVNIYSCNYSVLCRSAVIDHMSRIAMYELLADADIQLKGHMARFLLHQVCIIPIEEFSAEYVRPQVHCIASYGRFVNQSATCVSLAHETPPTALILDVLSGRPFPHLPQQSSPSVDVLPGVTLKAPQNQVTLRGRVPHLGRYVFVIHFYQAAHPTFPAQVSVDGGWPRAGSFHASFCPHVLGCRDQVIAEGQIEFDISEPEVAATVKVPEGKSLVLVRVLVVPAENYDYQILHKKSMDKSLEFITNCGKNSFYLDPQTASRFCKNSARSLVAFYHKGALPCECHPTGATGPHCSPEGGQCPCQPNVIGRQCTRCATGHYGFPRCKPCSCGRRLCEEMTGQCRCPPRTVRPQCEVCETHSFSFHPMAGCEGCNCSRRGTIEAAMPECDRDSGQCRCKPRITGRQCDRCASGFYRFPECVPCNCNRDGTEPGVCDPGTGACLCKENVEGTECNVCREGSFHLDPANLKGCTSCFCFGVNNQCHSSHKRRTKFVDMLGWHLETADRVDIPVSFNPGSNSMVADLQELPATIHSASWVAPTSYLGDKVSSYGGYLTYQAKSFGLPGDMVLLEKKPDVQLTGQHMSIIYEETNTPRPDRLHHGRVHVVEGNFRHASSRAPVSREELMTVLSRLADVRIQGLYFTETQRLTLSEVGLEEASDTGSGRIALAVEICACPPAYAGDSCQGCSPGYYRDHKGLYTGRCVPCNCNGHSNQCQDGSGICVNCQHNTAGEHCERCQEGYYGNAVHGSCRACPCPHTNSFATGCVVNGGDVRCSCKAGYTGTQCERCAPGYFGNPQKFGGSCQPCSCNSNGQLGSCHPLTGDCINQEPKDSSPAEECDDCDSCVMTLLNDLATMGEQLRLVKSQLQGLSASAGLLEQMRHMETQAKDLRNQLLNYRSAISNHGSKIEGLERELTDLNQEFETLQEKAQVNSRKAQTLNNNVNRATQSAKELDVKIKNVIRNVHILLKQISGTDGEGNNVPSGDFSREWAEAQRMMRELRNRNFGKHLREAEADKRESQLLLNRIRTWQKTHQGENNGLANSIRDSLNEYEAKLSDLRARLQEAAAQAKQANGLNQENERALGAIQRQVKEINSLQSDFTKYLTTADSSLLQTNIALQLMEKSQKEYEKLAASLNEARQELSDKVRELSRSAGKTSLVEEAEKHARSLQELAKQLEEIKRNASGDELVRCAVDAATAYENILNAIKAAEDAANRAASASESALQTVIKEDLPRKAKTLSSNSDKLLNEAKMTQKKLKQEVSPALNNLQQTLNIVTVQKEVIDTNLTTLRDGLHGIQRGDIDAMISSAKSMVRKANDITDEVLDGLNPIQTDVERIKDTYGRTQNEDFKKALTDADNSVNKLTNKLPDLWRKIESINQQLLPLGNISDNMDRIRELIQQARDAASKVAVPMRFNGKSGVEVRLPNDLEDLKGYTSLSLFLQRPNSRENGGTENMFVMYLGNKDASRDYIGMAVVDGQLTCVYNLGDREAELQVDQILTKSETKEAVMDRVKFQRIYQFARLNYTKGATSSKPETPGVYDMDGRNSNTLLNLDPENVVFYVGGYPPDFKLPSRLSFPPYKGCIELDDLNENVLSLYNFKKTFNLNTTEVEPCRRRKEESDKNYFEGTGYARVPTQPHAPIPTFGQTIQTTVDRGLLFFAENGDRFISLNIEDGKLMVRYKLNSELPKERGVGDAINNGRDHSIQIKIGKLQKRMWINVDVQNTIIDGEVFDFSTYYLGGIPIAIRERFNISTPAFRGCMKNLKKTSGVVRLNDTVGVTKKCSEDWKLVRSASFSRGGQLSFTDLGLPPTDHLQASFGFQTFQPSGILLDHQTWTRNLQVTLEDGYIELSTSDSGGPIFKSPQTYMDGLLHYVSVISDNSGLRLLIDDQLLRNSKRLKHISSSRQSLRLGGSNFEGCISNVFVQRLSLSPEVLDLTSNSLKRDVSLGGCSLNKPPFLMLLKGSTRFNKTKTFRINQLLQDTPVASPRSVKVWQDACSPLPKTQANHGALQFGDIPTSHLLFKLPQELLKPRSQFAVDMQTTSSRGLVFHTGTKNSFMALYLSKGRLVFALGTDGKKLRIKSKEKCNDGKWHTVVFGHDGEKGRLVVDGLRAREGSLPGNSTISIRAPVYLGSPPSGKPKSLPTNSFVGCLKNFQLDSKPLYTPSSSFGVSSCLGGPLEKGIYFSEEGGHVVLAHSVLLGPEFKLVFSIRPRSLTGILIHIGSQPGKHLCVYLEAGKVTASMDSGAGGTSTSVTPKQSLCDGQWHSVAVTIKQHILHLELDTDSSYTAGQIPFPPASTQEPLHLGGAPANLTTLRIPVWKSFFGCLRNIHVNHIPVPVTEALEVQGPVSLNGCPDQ
UniProt Q02388: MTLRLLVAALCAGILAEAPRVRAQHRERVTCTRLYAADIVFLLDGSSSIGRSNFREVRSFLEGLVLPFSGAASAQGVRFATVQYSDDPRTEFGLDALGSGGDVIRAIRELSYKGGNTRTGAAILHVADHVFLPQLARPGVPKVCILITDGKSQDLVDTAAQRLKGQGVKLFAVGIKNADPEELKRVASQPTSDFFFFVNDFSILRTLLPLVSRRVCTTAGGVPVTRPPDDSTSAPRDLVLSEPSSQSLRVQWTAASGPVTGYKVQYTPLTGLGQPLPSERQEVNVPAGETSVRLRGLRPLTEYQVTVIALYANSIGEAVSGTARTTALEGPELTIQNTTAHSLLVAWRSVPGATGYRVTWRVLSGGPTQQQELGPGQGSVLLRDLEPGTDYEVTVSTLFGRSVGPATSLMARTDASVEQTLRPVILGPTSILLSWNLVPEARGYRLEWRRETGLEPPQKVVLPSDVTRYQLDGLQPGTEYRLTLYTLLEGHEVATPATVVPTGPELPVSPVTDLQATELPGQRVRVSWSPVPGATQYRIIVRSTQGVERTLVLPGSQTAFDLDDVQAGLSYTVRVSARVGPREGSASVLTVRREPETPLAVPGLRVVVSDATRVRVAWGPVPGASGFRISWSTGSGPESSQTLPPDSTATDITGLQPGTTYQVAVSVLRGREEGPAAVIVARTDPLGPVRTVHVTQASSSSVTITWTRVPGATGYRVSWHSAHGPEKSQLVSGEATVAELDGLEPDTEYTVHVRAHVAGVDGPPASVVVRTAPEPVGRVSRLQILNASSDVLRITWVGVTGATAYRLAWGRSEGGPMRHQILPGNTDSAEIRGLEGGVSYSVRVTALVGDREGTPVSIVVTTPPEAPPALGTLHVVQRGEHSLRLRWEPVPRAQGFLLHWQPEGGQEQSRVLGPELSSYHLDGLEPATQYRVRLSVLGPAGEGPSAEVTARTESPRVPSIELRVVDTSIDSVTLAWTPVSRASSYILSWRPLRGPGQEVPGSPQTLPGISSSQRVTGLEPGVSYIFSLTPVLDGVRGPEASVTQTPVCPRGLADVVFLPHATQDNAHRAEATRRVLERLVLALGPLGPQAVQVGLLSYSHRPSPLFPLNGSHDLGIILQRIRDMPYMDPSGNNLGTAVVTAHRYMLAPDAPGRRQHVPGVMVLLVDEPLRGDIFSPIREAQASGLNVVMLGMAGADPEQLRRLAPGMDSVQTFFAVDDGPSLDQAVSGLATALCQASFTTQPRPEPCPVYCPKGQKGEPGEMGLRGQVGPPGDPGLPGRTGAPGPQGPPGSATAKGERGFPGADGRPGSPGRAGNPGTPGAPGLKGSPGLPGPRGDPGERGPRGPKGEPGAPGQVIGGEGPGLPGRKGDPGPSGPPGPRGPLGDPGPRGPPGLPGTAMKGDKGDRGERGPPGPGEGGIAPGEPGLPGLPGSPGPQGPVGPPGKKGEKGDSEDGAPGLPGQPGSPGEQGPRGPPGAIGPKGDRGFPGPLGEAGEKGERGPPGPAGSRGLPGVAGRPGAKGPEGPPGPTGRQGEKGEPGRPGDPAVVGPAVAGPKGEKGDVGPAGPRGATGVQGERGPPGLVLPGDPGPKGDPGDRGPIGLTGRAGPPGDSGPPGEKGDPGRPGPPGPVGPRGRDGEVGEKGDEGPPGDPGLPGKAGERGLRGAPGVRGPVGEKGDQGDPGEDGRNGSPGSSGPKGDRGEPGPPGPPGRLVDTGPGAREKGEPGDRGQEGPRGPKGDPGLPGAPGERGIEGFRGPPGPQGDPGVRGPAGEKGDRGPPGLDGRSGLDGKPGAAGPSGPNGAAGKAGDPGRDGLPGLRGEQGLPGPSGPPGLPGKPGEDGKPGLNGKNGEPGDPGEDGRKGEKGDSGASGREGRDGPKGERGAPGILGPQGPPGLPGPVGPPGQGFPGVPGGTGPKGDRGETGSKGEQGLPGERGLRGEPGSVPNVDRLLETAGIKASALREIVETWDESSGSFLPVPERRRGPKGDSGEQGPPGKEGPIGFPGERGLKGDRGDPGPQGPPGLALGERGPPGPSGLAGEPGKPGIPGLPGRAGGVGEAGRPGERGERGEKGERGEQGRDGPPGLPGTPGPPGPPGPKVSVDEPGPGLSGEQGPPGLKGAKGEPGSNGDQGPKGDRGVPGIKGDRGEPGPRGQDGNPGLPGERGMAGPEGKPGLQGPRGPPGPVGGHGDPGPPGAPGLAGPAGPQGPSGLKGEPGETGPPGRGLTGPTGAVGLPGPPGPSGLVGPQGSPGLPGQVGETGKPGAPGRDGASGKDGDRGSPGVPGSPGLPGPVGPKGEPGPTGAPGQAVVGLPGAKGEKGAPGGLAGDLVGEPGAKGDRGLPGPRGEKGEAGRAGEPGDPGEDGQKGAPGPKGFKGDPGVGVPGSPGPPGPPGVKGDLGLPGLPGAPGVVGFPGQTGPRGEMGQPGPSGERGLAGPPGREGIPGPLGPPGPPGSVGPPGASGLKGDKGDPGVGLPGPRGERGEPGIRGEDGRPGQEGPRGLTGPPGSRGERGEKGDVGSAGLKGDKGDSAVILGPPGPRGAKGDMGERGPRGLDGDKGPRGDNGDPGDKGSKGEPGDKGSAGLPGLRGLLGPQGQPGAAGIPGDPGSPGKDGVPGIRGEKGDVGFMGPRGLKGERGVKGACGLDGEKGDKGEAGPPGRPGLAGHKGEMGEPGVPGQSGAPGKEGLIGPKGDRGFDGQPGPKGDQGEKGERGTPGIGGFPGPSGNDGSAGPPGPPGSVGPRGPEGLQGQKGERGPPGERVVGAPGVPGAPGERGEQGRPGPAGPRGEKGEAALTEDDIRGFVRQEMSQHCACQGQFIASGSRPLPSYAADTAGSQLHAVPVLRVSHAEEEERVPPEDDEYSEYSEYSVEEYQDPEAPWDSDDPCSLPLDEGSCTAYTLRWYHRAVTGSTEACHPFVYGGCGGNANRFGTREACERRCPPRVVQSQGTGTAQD

These are yes or no findings as the source states them, for the method shown. Some binding calls cover weakened binding; strength is not graded here.

As for “MCB-derived rCol7 composition (recombinant human collagen 7 produced by CHO cell clone B1STBSTbcp03) (from UniProt Q02388 17-2944)”, the binding entry with laminin-332 [1] and in the assay with laminin-332 [2] was “binds” throughout.

As to “reference collagen 7 (from human fibroblasts) (from UniProt Q02388 17-2944)”, the binding entry in the assay with laminin-332 [1] and with laminin-332 [2] was “binds” in each case.

Values taken from patent US20220177546A1.
